# Source: US8445509B2, “Fused heterocyclic derivatives and use thereof” (Takeda Pharmaceutical Company Limited, priority 2008, dated 2013)
# Some entries share one result that the patent states for a list of compounds.
# System: Human gastric cancer cell line MKN-45
# Test: Human gastric cancer cell line MKN-45 growth inhibitory test
# Format: cell-based
# Conditions: 1 μM test substance, culture for 3 days
# Procedure: Human gastric cancer cell line MKN-45 (RIKEN BioResource Center) was cultured in RPMI1640 (Invitrogen) containing 10% bovine fetal serum in a gas incubator at 37° C., 5% CO2. MKN-45 cells were treated with trypsin/EDTA and recovered. The cells were suspended in RPMI1640 containing 0.3% bovine fetal serum, plated on a 96 well flat bottom plate at a cells density of 3000 cells/50 μL per well. After culturing overnight, various concentrations of test substance were dissolved in RPMI1640 containing 0.3% bovine fetal serum and added to each well by 50 μL. After culture for 3 days, a Cell counting kit-8 reagent (DOJINDO LABORATORIES) was added to each well by 10 μL, and reacted in an incubator at 37° C., 5% CO2 for 2-3 hr. After the reaction, the absorbance of each well at 450 nm was measured by a microtiter plate reader. The concentration of a test substance necessary for inhibiting the growth by 50% (IC50 value) was calculated using a cell proliferation rate with addition of the test substance at each concentration and according to the nonlinear regression analysis using GraphPad Prism [Sigmoidal dose response (variable slope)]. The cell proliferation rate (%) with addition of a test substance at each concentration was calculated by the following formula. As a positive control (100% growth), dimethyl sulfoxide was added instead of a test substance. […]
compound,measurement,value
"Cc1ccc(C(=O)Nc2ccc(Oc3ccc4nc(NC(=O)C5CC5)cn4c3)c(F)c2)c(=O)n1-c1ccccc1.Cc1ccc(S(=O)(=O)O)cc1 [Example 87, N-[4-({2-[(cyclopropylcarbonyl)amino]imidazo[1,2-a]pyridin-6-yl}oxy)-3-fluorophenyl]-6-methyl-2-oxo-1-phenyl-1,2-dihydropyridine-3-carboxamide p-toluenesulfonate]",inhibitory rate (%) at 1 μM,not less than 80%
